Results published in publication PMC6411202.

The chains behind the UniProt entries cited, without tags or fusion partners.
UniProt Q92597: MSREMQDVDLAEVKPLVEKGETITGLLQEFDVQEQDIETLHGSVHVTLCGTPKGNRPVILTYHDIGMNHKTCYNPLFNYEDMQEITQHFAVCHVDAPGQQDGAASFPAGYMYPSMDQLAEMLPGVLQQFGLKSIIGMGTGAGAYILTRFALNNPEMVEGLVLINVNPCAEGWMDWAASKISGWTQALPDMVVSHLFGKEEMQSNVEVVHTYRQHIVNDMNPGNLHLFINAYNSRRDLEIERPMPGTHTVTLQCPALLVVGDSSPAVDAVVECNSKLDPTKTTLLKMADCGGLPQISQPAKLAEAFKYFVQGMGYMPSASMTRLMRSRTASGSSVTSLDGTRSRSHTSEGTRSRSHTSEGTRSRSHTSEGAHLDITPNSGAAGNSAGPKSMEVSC
UniProt P12004: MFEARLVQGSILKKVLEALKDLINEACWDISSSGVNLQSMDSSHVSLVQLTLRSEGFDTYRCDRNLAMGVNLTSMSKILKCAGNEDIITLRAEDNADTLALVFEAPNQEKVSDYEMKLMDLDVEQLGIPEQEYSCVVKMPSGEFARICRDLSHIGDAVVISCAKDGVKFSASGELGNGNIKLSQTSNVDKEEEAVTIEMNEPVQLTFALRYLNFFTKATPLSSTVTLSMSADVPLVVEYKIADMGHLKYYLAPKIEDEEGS

Molecular target: Strep-FLAG (SF)-tagged NDRG1, expressed in iSLK.RGB cells (human (cDNA from HEK293T)) (UniProt Q92597)
Experiment: affinity purification with mass spectrometry; tandem affinity purification of SF-tagged NDRG1 from iSLK.RGB lysate: Strep-Tactin Sepharose, desthiobiotin elution, then anti-FLAG M2 gel 4 hr at 4°C, 3xFLAG peptide elution; buffer W (50 mM Tris pH 7.9, 100 mM KCl, 0.1% Triton-X100); eluate to MS

proliferating cell nuclear antigen (PCNA), endogenous in iSLK.RGB cells (from UniProt P12004 1-261)
binding: binds

No constants are given. Whether binding was seen depends on the method and setting. Binding seen in cells or lysates may run through a third protein. These calls come from enrichment with a bait or labelling near it, and not all partners need be listed.
